Measured values from PMC6197697.
A weaker result is weaker than the reference pair of the same experiment.

By UniProt entry, the sequences of proteins in these tests, tags left out. Where a name states a change or a piece, a line headed by the entry shows the natural chain unless it says otherwise.
UniProt Q84NC5: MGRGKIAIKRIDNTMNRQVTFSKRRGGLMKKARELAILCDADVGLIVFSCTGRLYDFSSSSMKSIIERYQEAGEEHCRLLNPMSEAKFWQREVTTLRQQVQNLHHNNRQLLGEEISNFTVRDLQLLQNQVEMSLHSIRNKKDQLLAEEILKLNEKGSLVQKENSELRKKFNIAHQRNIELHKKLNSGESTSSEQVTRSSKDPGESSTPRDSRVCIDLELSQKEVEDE

Target: His-OsMADS25 (Oryza sativa) (UniProt Q84NC5)
Assay: EMSA
Settings: 5 mM Mg2+; 10 mM Tris pH 7.5, 50 mM KCl, 1 mM DTT, 2.5% glycerol, 5 mM MgCl2, 0.05% NP-40, 50 ng/ul poly(dI-dC), 30 ng protein, 400 fmol probe in 20 ul; recombinant protein; residues 1-227; protein details: His (pET32a fusion); label: biotin 3' end

CATGCTGTGATAAATTAATATTTGACCAGCC (double strand) [Mut-OsGST4 probe]
binding result: binds more weakly
